The values that follow come from US20060041111A1.

Amino acid sequences for entries named in this document (tags omitted). A change or cut given only in a name is not applied to a line headed by its entry. Residues count along the entry.
UniProt P46108, residues 132-192: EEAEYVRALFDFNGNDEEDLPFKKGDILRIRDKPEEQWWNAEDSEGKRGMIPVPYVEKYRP
UniProt Q8N1I0: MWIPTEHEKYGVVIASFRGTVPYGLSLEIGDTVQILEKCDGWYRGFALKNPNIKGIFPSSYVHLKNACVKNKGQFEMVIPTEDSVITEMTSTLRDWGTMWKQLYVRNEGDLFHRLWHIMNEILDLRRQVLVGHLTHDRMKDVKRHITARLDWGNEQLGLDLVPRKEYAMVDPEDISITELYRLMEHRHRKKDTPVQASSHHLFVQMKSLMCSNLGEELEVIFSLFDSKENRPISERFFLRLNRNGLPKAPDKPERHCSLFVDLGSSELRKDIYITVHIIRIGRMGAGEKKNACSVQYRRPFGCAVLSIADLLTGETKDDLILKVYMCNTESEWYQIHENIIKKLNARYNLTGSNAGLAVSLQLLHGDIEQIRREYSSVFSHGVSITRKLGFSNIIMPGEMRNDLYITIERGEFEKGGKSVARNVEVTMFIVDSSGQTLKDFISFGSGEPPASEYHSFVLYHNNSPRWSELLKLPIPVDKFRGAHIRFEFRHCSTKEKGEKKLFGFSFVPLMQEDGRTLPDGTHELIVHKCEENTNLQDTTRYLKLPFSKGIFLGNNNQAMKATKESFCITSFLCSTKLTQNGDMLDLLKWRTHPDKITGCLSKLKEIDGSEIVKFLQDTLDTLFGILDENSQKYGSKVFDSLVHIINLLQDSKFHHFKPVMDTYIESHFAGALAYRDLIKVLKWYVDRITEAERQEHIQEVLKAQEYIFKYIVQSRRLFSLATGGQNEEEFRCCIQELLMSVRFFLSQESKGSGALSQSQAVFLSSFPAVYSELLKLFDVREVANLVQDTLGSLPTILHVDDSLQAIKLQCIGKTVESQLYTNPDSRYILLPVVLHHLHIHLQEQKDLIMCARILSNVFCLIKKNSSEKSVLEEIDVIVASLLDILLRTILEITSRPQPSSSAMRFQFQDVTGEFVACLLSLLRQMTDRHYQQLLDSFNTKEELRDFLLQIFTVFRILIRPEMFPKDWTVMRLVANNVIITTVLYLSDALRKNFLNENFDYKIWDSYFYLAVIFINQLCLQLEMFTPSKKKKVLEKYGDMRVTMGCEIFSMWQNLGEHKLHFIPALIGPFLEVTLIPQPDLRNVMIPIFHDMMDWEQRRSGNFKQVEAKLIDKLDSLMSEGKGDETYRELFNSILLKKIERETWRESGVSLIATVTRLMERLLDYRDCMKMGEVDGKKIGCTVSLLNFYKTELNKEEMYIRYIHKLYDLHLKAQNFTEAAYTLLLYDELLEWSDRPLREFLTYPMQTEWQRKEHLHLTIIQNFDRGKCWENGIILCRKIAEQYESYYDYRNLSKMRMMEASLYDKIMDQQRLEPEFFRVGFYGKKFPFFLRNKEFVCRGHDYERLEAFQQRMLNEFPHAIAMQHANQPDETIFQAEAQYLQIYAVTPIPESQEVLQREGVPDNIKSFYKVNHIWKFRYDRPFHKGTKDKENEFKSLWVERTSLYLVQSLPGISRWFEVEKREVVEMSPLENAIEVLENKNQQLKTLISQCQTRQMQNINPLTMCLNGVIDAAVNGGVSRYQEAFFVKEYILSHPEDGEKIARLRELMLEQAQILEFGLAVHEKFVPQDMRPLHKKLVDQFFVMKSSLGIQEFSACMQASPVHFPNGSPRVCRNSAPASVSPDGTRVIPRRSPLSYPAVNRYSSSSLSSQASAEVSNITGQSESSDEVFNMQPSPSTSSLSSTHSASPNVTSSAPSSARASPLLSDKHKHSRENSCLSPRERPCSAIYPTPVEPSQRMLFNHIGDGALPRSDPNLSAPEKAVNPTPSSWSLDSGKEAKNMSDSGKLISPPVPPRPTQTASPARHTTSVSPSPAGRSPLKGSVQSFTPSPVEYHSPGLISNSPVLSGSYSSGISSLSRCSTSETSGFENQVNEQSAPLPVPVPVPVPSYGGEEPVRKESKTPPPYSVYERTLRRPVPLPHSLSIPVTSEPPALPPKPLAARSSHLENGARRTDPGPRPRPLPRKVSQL

For assay [1], the target named is GST-Crk-N terminal SH3 domain (UniProt P46108). The assay can be described thus: summary sentence of Example 2 (GST pull-down).
The target is the same in assay [2]. The assay can be described thus: GST pull-down, lysate in SDS containing RIPA buffer, beads carrying GST-Crk-N terminal SH3 domain.

These are yes or no findings as the source states them, for the method shown. In cells and extracts the contact can be indirect. Some binding calls cover weakened binding; strength is not graded here.

As for “DOS+SSB (human DOS protein of 1966 amino acids, with Src SH3 domain binding site), epitope tagged (from UniProt Q8N1I0 1-1966)”, the binding result in assay [1] and in assay [2] was “binds” each time.

“DOS-SSB (alternatively spliced human DOS protein of 1928 amino acids, without Src SH3 domain binding site), epitope tagged (from UniProt Q8N1I0 1-1966)”: the binding entry in assay [2] is reported as “binds”.
